Reference: PubChem BioAssay AID504804 (Drosophila RNAi Screening Center, 2011)
The deposit covers about 19,000 reagents; shown is an unselected part of those that have a named target and a result. Of all reagents, 47 (0.25%) were called active. 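Signals are raw, not normalised; exact z-scores behind calls not deposited; actives needed confirmation, so some wells reaching 2 SD are inactive.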 Entries without a mark were called inactive. A plus sign joins genes that one reagent is predicted to hit.

- Aim: 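Fly genes whose loss lessens doxorubicin-driven cell death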 (primary screen)
- Cells: Drosophila Kc cells
- Reagent: long dsRNA against Drosophila genes, 0.5 µg dsRNA per well
- Timing: 96 h (48 h knock-down, then 48 h drug)
- Conditions: doxorubicin 5 µg/ml for 48 h, added 48 h after dsRNA
- Measurement: 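Viability measured as cellular ATP by luminescence after 48 h knock-down then 48 h doxorubicin at 5 µg/ml; unnormalised plate counts for each replicate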
- Reading the numbers: raw ATP luminescence: higher = more viable cells, protection from doxorubicin
- Hit rule: 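z-score of 2 or more over plate mean in both duplicates, retained only when retests and separate dsRNAs confirm the protection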

vret [DRSC15640]
- raw ATP luminescence, replicate 1: 56757
- raw ATP luminescence, replicate 2: 57420

tkv + CR14033 + tRNA:Asp-GTC-2-1 + 1 more [DRSC00861]
- raw ATP luminescence, replicate 1: 2.14e5
- raw ATP luminescence, replicate 2: 3.18e5

CG9289 [DRSC03187]
- raw ATP luminescence, replicate 1: 37423
- raw ATP luminescence, replicate 2: 55253

CG10512 [DRSC11615]
- raw ATP luminescence, replicate 1: 57943
- raw ATP luminescence, replicate 2: 49360

Caf1-55 [DRSC16596]
- raw ATP luminescence, replicate 1: 49697
- raw ATP luminescence, replicate 2: 22837

CG10927 [DRSC06014]
- raw ATP luminescence, replicate 1: 64907
- raw ATP luminescence, replicate 2: 58190

Plzf [DRSC02994]
- raw ATP luminescence, replicate 1: 96400
- raw ATP luminescence, replicate 2: 77387

CG31883 [DRSC02561]
- raw ATP luminescence, replicate 1: 79390
- raw ATP luminescence, replicate 2: 55967

CG9928 [DRSC03274]
- raw ATP luminescence, replicate 1: 70260
- raw ATP luminescence, replicate 2: 82097

CG44001 + CG33995 [DRSC00853]
- raw ATP luminescence, replicate 1: 2.81e5
- raw ATP luminescence, replicate 2: 3.05e5

CG44001 + CG33995 [DRSC02898]
- raw ATP luminescence, replicate 1: 1.02e5
- raw ATP luminescence, replicate 2: 81670

CG34024 (retired record) [DRSC13734]
- raw ATP luminescence, replicate 1: 1.80e5
- raw ATP luminescence, replicate 2: 2.31e5

CG7707 [DRSC10903]
- raw ATP luminescence, replicate 1: 45753
- raw ATP luminescence, replicate 2: 31053

CG33281 [DRSC00421]
- raw ATP luminescence, replicate 1: 30617
- raw ATP luminescence, replicate 2: 38307

CheA75a [DRSC10807]
- raw ATP luminescence, replicate 1: 45203
- raw ATP luminescence, replicate 2: 35220

trc [DRSC11406]
- raw ATP luminescence, replicate 1: 75310
- raw ATP luminescence, replicate 2: 61497

CG17169 [DRSC20905]
- raw ATP luminescence, replicate 1: 3.25e5
- raw ATP luminescence, replicate 2: 3.02e5

Gli [DRSC03332]
- raw ATP luminescence, replicate 1: 61443
- raw ATP luminescence, replicate 2: 74420

Cdk5 [DRSC07359]
- raw ATP luminescence, replicate 1: 84613
- raw ATP luminescence, replicate 2: 56010

Looked up above.
For “raw ATP luminescence, replicate 2”, CG10512 [DRSC11615] shows 49360
CG9289 [DRSC03187], raw ATP luminescence, replicate 2: 55253
Result for CG9928 [DRSC03274] in “raw ATP luminescence, replicate 2”: 82097
